Measured values taken from patent publication US12643926B2, “LysM receptor motifs” (Aarhus Universitet, priority 2020, dated 2026).
For at least one compound, name, drawing or mass did not settle the structure.

Protein sequences, listed by entry. Tags and fused reporters are not part of them. Lines headed by an entry give the natural chain unless they say otherwise; changes in a name come on top. Residues count along the entry.
UniProt Q6UD73, 23-229: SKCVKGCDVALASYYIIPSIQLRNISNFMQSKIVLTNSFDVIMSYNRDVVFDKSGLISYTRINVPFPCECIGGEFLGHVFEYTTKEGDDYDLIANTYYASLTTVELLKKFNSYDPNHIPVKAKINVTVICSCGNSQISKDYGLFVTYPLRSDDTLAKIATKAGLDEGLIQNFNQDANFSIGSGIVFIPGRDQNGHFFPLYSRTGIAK
UniProt Q0GXS4, 28-246: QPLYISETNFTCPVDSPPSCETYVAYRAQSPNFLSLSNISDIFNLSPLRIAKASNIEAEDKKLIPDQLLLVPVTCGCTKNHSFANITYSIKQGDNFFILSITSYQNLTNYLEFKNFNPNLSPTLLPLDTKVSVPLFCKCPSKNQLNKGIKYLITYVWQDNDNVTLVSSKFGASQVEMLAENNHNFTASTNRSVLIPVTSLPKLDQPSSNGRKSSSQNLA

Assays:
[1] = target: T1, Medicago truncatula LYK3 ectodomain, wild type (residues 23-229; full length SEQ ID NO: 163) (Medicago truncatula, UniProt Q6UD73); assay: biolayer interferometry (BLI) binding of Nod factors to LYK3 ectodomain; conditions: biotinylated Nod factor immobilized, 30° C., pH 7.2
T1 construct: The M. truncatula LYK3 ectodomain (residues 23-229); hexahistidine (C); made in house; host or cells: Sf9 insect cells (Spodoptera frugiperda), baculovirus

[2] = target: T2, Lotus japonicus NFR1 ectodomain, wild type (residue 25-222, SEQ ID NO: 158; full length SEQ ID NO: 162) (Lotus japonicus, UniProt Q70KR7); assay: biolayer interferometry (BLI) binding of Nod factors to NFR1 ectodomain; conditions: biotinylated Nod factor immobilized, 30° C., pH 7.2
T2 sequence (Q70KR7 25-222): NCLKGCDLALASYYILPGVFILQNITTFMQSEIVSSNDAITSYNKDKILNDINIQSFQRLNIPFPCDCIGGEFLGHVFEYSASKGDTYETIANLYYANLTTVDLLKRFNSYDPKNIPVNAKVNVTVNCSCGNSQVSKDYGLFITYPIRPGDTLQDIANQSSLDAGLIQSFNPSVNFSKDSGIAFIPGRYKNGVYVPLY

[3] = target: T3, Medicago truncatula NFP ectodomain, wild type (residues 28-246) (Medicago truncatula, UniProt Q0GXS4); assay: biolayer interferometry (BLI) binding of S. meliloti Nod factor LCO-IV to NFP WT ectodomain; conditions: Table 9, BLI; n = 7
T3 construct: The M. truncatula NFP ectodomain (residues 28-246); AcMNPV gp67 signal peptide, replaces the native signal peptide (N); hexa-histidine (C); made in house; host or cells: Sf9 insect cells (Spodoptera frugiperda), baculovirus
Experimental: The M. truncatula NFP ectodomain (residues 28-246) was codon-optimized for insect cell expression (Genscript, Piscataway, USA) and cloned into the pOET4 baculovirus transfer vector (Oxford Expression Technologies). The native NFP signal peptide (residues 1-27, predicted by SignalP 4.1) was replaced with the AcMNPV gp67 signal peptide to facilitate secretion and a hexa-histidine tag was added to the C-terminus. Recombinant baculoviruses were produced in […] (Spodoptera frugiperda) using the FlashBac Gold kit (Oxford Expression technologies) according to the manufacturer's instructions with Lipofectin (ThermoFisher Scientific) as a transfection reagent. Protein expression was performed as follows. […]
Binding of NFP WT and NFP L147D/L154D mutant to S. meliloti Nod factor LCO-IV was measured on an Octet RED 96 system (Pall ForteBio). […] Equilibrium dissociation constants derived from the steady-state were determined by applying a non-linear regression (one site, specific binding) to the response at equilibrium plotted against the protein concentration. Kinetic parameters were determined by non-linear regression (association followed by dissociation) on the subtracted data. […]

Compound: CCCCCC/C=C\CCCCC/C=C/C(=O)N[C@H]1[C@H](O[C@H]2[C@H](O)[C@@H](NC(C)=O)[C@H](O[C@H]3[C@H](O)[C@@H](NC(C)=O)[C@H](O[C@H]4[C@H](O)[C@@H](NC(C)=O)C(O)O[C@@H]4COS(=O)(=O)O)O[C@@H]3CO)O[C@@H]2CO)O[C@H](COC(C)=O)[C@@H](O)[C@@H]1O (stereo partly drawn) [S. meliloti Nod factor LCO-IV]
- Kd [1]: 27.4 ± 0.4 µM
- Kd [2]: 22.1 ± 0.2 µM
- Kd [3]: 12.7 ± 0.1 µM
